Experimental data: paper PMC3524939
These are yes or no findings as the source states them, for the method shown. In cells and extracts the contact can be indirect. Some entries that bind do so weakly or less than the wild type.

Amino acid sequences for entries named in this document (tags omitted).
UniProt Q61188: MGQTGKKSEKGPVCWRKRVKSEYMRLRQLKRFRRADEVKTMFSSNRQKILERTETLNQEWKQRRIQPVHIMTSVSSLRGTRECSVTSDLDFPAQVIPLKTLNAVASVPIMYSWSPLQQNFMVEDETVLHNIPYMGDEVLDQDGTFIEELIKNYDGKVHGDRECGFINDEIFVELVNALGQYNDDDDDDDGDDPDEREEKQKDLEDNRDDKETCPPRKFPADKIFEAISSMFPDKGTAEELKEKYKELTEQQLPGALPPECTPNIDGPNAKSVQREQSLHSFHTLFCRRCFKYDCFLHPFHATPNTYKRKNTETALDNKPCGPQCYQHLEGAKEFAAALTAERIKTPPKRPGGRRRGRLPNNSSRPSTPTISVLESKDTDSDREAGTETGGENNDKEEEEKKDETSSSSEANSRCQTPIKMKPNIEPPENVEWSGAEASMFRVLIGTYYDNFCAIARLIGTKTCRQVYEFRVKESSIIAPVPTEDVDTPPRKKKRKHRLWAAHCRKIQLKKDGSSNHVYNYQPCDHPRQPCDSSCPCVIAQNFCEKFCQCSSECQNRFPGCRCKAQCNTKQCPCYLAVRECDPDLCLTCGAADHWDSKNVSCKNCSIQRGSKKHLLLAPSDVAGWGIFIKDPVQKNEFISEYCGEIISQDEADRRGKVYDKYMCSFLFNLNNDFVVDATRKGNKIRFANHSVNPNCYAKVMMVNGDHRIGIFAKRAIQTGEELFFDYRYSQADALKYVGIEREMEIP
UniProt Q9CQJ4: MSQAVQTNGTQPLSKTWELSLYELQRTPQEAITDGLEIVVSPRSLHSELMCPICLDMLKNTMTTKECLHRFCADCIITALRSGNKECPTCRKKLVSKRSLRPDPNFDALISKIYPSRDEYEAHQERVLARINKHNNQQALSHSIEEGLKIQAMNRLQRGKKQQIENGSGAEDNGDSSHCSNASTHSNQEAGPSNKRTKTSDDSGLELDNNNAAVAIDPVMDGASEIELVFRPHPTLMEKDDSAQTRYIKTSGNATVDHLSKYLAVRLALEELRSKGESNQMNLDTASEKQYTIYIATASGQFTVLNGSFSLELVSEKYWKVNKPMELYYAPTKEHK

Biological target: T1, endogenous KDM2B (mouse (endogenous in ESCs)) (UniProt Q6P1G2)
T1 sequence: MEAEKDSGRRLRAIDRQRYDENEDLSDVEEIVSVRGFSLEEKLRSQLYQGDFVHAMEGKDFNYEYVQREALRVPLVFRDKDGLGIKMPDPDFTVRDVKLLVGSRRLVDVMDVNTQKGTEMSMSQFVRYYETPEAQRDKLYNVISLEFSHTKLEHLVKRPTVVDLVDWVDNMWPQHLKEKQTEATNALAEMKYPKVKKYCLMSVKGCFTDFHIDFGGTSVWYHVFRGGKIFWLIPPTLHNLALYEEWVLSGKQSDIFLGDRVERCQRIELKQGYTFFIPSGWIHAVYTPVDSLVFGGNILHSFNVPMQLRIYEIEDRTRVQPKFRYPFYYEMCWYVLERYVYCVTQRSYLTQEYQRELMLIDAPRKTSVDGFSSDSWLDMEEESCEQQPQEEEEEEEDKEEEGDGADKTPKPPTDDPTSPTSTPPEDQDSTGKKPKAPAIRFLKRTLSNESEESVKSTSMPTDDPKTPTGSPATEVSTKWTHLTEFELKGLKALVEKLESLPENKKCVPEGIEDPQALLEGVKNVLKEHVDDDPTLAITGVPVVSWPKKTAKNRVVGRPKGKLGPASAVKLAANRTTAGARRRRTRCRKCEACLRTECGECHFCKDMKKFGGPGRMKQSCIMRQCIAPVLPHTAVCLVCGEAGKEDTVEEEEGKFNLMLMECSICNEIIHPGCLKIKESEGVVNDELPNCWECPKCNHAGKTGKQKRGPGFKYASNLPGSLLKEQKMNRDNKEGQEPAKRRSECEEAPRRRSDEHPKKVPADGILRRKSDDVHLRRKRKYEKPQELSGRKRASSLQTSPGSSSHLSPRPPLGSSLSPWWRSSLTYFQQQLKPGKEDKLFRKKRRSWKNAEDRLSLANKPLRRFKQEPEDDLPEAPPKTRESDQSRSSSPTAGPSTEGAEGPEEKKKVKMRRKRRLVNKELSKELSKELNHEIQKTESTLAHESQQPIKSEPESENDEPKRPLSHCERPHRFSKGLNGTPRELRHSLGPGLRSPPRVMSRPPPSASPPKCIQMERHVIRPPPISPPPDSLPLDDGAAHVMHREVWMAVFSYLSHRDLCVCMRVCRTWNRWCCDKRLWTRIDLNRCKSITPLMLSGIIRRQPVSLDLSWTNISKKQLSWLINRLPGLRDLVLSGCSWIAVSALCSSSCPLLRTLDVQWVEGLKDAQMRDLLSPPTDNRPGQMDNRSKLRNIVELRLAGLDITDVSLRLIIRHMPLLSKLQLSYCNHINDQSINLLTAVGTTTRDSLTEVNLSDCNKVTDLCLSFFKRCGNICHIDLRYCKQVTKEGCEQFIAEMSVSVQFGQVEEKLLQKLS
Assay: co-IP; endogenous KDM2B immunoprecipitated from 0.5 mg mouse ESC nuclear extract in BC150, overnight at 4°C, protein A beads, washed with BC300; western blot; Flag immunoprecipitation as negative control

Row | binding | Substance
1 | no binding | EZH2 (from UniProt Q61188 1-746)
2 | binds | RING1B (from UniProt Q9CQJ4 1-336)
